Results: publication PMC8592882
These are yes or no findings as the source states them, for the method shown. Some binding calls cover weakened binding; strength is not graded here.

Chains of the proteins cited; added tags and fusions are not shown. Lines headed by an entry give the natural chain unless they say otherwise; changes in a name come on top.
UniProt Q63009: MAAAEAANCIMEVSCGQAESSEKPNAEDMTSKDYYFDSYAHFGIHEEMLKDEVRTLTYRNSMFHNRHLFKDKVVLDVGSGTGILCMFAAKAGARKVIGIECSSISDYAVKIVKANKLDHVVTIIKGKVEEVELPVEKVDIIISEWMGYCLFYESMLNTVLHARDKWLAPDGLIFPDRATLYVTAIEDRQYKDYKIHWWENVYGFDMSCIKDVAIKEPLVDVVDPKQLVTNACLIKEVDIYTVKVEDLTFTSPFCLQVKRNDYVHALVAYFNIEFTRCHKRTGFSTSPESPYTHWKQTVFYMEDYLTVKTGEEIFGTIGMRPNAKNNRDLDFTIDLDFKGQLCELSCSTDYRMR

How the values were obtained:
[1] = biological target: W197L/Y202N/M206V rPRMT1 (R. norvegicus) (UniProt Q63009); experiment: native gel or EMSA; 4 to 20% native PAGE with western detection (anti-PRMT1 or anti-His); protein at 750 nM, 1 uM and 2 uM in 50 mM sodium phosphate, 1 mM EDTA, 1 mM DTT, 10% glycerol, pH 7.6; run at 4 C; bands assigned with WT PRMT1 (tetramer) and a tetramerization-deficient mutant (dimer) as standards; both purified
[2] = biological target: W197L/Y202N/M206V rPRMT1 (R. norvegicus) (UniProt Q63009); experiment: AUC; sedimentation velocity, 3 uM protein, 50 mM sodium phosphate, 2 mM EDTA, pH 7.6, 2 mM DTT added to appropriate tubes, 20 C, 40,000 rpm, absorbance at 280 nm, c(s) analysis in Sedfit; both purified
[3] = biological target: M206V rPRMT1 (R. norvegicus) (UniProt Q63009); experiment: native gel or EMSA; 4 to 20% native PAGE with western detection (anti-PRMT1 or anti-His); protein at 750 nM, 1 uM and 2 uM in 50 mM sodium phosphate, 1 mM EDTA, 1 mM DTT, 10% glycerol, pH 7.6; run at 4 C; bands assigned with WT PRMT1 (tetramer) and a tetramerization-deficient mutant (dimer) as standards; both purified
[4] = biological target: W197L rPRMT1 (R. norvegicus) (UniProt Q63009); experiment: as above
[5] = biological target: Y202N rPRMT1 (R. norvegicus) (UniProt Q63009); experiment: as above

W197L/Y202N/M206V rPRMT1 (from UniProt Q63009 14-353) (enzyme)
binding [1]: binds weakly | binding [2]: binds weakly

M206V rPRMT1 (from UniProt Q63009 14-353) (enzyme)
binding [3]: binds weakly

W197L rPRMT1 (from UniProt Q63009 14-353) (enzyme)
binding [4]: binds weakly

Y202N rPRMT1 (from UniProt Q63009 14-353) (enzyme)
binding [5]: binds weakly
